Among all 52,000 sequences or so, about 210 (0.4%) were called active.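 Rule for the calls: active = gene whose silencing raises cell survival under the drug, median off-target-corrected z-score across its silencing RNAs 2 or more; inactive = the rest.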 The list shows a part of the results.
Experiment: Resistance to Poly (ADP-Ribose) Polymerase inhibitor: Gene Identification via Genome-wide siRNA Screen
Details: mouse BRCA2 R2336H ES cells, olaparib, CellTiter-Glo viability; hits give high values
In short: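 Genome-wide siRNA screen (3 siRNAs/gene, 20 nM) in mouse ES cells carrying hypomorphic BRCA2 R2336H; olaparib 500 nM added 48 h post-transfection, CellTiter-Glo viability 72 h later. Normalized to plate-median negative control; MAD z-scores, gene median, seed-adjusted.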

Sequence | z-score
GGACUUCAGCCUCAUCCUGTT against Bcap37 | inactive: -2.31
GGUUACGAGAGAUGUUUGGTT against Sara2 | inactive: 1
GGUUGAUUCUUAAAUUGUGTT against Slc6a5 | inactive: 1.13
CCCACUCAAAUCUAUCAAGTT against Otof | inactive: 1.12
GGUUCAGCAAACCUACAAATT against 1100001I19Rik | inactive: -0.412
GGUCUUAAAUAAUCUGGUCTT against Olfr959 | inactive: 0.758
CCUAUGUCACUAAGGCACGTT against Nudt13 | inactive: 0.0547
GGAAGUCCUAUGAUUAAACTT against 2310008M20Rik | inactive: 0.0693
GGAUACAUUCCAGACAUACTT against Map3k2 | inactive: -0.51
CCAUUAAUUACGUGUUUGUTT against Dixdc1 | inactive: 0.568
GGCAUUAAUAUGUCUGACUTT against D1Ertd251e | inactive: -1.9
GGACAAGUCAAUUUGUUGGTT against Zfp36l1 | inactive: 1.11
GCAACCAGAGAAAGUUGAGTT against Scx | inactive: -0.317
GGUAUAUGAGCAGCUGUCCTT against Uxt | inactive: -0.968
GGAACCACACCAUGUGAAATT against Prdm5 | inactive: 0.301
CCUAGUAAUCAGUUUGAAUTT against Ak4 | inactive: 0.076
GGAAAUCUCCUAGAAGAAATT against Mrps18b | inactive: -0.116
GCUGCUAAUAUCAAUAACGTT against Prf1 | inactive: -0.681
CGAGUGUUCCUCCAAGUGCTT against Fhl5 | inactive: -1.45
GGAGUACCAACCAGAUUUATT against Cdc26 | inactive: -1.59
GGGUCCUCUUUCUCCUGUUTT against Ier3 | inactive: -1.2
GGACCAGGGCAAAAUAUGATT against D730048I06Rik | inactive: 0.866
GGCCAGGUAACUCUUACAATT against Trpv1 | inactive: 0.987
CGAAGUUCACUUCUUUGAGTT against D3Ertd194e | inactive: 0.699
GGAGUUCAUGAUUCUGCCATT against Eno3 | inactive: -1.28
CGAUACUGAUCACUCCUAUTT against Ugcgl1 | inactive: -0.456
GGGUCCUAGAGACUUUGAATT against Txndc5 | inactive: -0.86

4 successive entries from above, quoted:
Sequence | z-score
GGUUACGAGAGAUGUUUGGTT against Sara2 | inactive: 1
GGUUGAUUCUUAAAUUGUGTT against Slc6a5 | inactive: 1.13
CCCACUCAAAUCUAUCAAGTT against Otof | inactive: 1.12
GGUUCAGCAAACCUACAAATT against 1100001I19Rik | inactive: -0.412

More entries:

Sequence | z-score
CCGUUCAAACUACUUGCUGTT against Smad7 | inactive: 1.85
GGAGAAAACCAAACAAUGATT against Gpr156 | inactive: -1.09
GGCUAAACUCAAACUCACATT against D630029K05Rik | inactive: -0.503
GGCUGAACAGAUAAAUCAGTT against Stoml2 | inactive: -0.652
GCUAAAGUCGGAAAAUCAATT against Scoc | inactive: 0.448
GGCAAGCUGAAGAUGAACATT against Ntn1 | inactive: 0.736
GGACAUCCAGACAAUGAGGTT against AW060714 | inactive: 0.386
GGUGGACCAUUCUUUUUCUTT against Zfp57 | inactive: 0.645
AUUCUGCAAGUGCCGUAUGTT against Fcrlm2 | inactive: -1.89
GCAUGAAGAGGCAAAGGCUTT against Igfbp1 | inactive: -0.909
GGUUGUGGAUCAUUAUGAATT against 2310020H20Rik | inactive: -3.21
GGCACAUAUGAGGACUACCTT against BC037527 | inactive: 0.972
GCUUGAUUAGGUAGGAAUATT against Stk32a | inactive: -0.291
CGUGCAAUCCGAUUUGUUGTT against Acaca | inactive: -0.036
GCCAAACUAUCAGAGAUGGTT against BC031853 | inactive: 0.373
CCCGGAGUGGUCAGAAGUATT against Mapkapk2 | inactive: -1.09
GCAUUUAGGUCUGAUAAAGTT against Gpr61 | inactive: -0.0963
GGGCAAAUAUGUUCUCAUUTT against Ndst3 | inactive: -0.00739
GGAUCGUUUUAAUAGUCUGTT against 2600005O03Rik | inactive: -0.952
GGCAACAGACAUUCAUCUUTT against Mfng | inactive: -0.665
GGGAUUUUGAGUUUGAUGCTT against AI790326 | inactive: 0.46
GGUUUAUGCAAUGAAGCUUTT against Rock2 | inactive: -0.276
GGUAUGAACCGUGAUCCUCTT against Lrrtm4 | inactive: 0.248
GGAACAGCAGUUUUUGUUUTT against Rnf44 | inactive: -0.113
GGAAACUGAAAAACAGAGUTT against Xbp1 | inactive: -0.321
GGGAAUCAAAGGCUUUGGGTT against Ms4a1 | inactive: 0.65
GGACUUCUUGCUGGUCUAGTT against Cmar | inactive: -1.14

Single values from the list.
In z-score, GGCUAAACUCAAACUCACATT against D630029K05Rik shows inactive: -0.503
In z-score, GGAGAAAACCAAACAAUGATT against Gpr156 shows inactive: -1.09

Later entries:

Sequence | z-score
GGGCCUCUUCCUUAAGCAUTT against Snx8 | inactive: -1.01
CGGAUGUGCCAUCCAUCAGTT against 5830405N20Rik | inactive: 1.39
GGCUGUGAAAAAACUAGAATT against Serpina1e | inactive: -0.121
GGUUGUCUUCAACACCAAATT against Lgals7 | inactive: -0.587
GGCCCUAGCAGAUGAAAAATT against Ubl4 | inactive: -0.29
GGUGUCGACAGGAUGGAAUTT against Adamts7 | inactive: 1.8
GCUUCUGUUCAAAUACUUATT against Tal1 | inactive: -0.0783
GCAAGAAGUAAUCAACUUUTT against Rqcd1 | active: 2
CCCUAAUUCAUUAGCUAUATT against Dhdds | inactive: 0.747
GCCACGGCCAGUAAAACAUTT against E030027H19Rik | inactive: 0.924
CGACAGAGGAAGGUAUUGGTT against 5730591C18Rik | inactive: -0.64
GGCUUUUUGCUUUAGCUUUTT against Cfl1 | inactive: -0.0664
GGGCCAUUACAGAGUUUCUTT against Apobec1 | inactive: 0.212
GCCUAAAUUUAUUCAGGUUTT against Neurod1 | inactive: 2.28
GCUUUAGAGUUCAAUAGUCTT against Zfp592 | inactive: 0.477
CGUGGAUCGGAACAGUAUCTT against Lrrc10 | inactive: -0.779
GCAGUAAAGCUUGUGUAGGTT against Mpdu1 | inactive: 0.303
GGCUGAUCCAUUUUCACAATT against Adam6 | inactive: 0.00954
GCCAAUUAAUGAUUGCUUUTT against Zfp322a | inactive: -0.131
CCACAAGCUUCAAUGACACTT against 6430571L13Rik | inactive: 0.321
GGACUUCCAGAGCUGUUUUTT against Tera | inactive: -0.107
CCGUCUAUGGUUCAAGGUCTT against Cdca8 | inactive: 0.106
GCUACAGGGAAGUAUUGAATT against Apc | inactive: 1.26
GGAAUCACAGUGCAGAAGGTT against Olfr1262 | inactive: 0.562
GCAGGUCCUGACCUAUGUGTT against Cyp27b1 | inactive: -0.276
GCGAGCUUUAACCUUUCCATT against Olfr1028 | inactive: -0.613
GGUUCAGGAGAACUUCAGUTT against Ambp | inactive: 0.75

Sequence | z-score
GGUAGCAGCCUUCCGACAUTT against Mtmr9 | inactive: 2.48
GGAGCAAAUCCAGAACCGATT against Trim27 | inactive: 1.34
GGAGAACUACCUGUCAGAATT against Tnni2 | inactive: -0.31
GGCCAACCAAGAGGACAAUTT against Nup107 | inactive: -2.19
GGUGAACCUUGGUACCCAUTT against Mrps18b | inactive: -0.809
CGGUUACAAUUCAGUGAUATT against C230008H04Rik | inactive: 0.278
GCUUACAUCCAAGCCGUCUTT against 4931440B09Rik | inactive: 1.71
GGAUCACCAAAAAUAGAUATT against D4Wsu53e | inactive: 1.57
CCGUCGUACACAAUCUUACTT against Fgfr4 | inactive: 0.64
GACAAGCAAUAAAGAAAGATT against 1110008K04Rik | inactive: -0.134
GUAUUAUAGACACCUUGCATT against Phip | inactive: 1.78
GGAAAUAACAAGUUUUCCATT against Endogl1 | inactive: 0.802
GGUCUAUACCAUCCUAUUGTT against Faim2 | inactive: -1.24
UUUGAACUUUCGAACCCGCTT against Tuba6 | inactive: -0.183
GGCUGUCAAAACAGUGCUCTT against Hmgcs2 | inactive: 0.0432
GGGUGUAAGACUGUGUUUGTT against D230005D02Rik | inactive: 1.22
GCUGUCCUACUGAGCUUGCTT against D330012F22Rik | inactive: -1.03
CGGUGCUGUAUAUUCAUAUTT against Chrm4 | inactive: -0.0881
GGUUGUGAUCAAUUAUUCATT against Evl | inactive: 0.0791
GGAAGCUGAAAAAUGAACUTT against Sytl5 | inactive: 0.101
GGACAAUCAGUACCUUAACTT against Tex9 | inactive: -1.6
GGUCUCAUCUAAGGUGUCATT against Pcdha7 | inactive: -0.386
CCUGGAAACAUCAUGUAGUTT against Dctn1 | inactive: -0.704
GCCGGAUUCUUCAAAAGCUTT against Commd10 | inactive: -0.509

From PubChem BioAssay AID1347423 (Functional Genomics Laboratory (NCATS/FGL), 2020)
